Twelve molecules from article PMC1888729 can be followed below.

Sequences of proteins named here, by UniProt entry; tags and fusion partners are left off. A change or cut given only in a name is not applied to a line headed by its entry.
UniProt Q9UHX1: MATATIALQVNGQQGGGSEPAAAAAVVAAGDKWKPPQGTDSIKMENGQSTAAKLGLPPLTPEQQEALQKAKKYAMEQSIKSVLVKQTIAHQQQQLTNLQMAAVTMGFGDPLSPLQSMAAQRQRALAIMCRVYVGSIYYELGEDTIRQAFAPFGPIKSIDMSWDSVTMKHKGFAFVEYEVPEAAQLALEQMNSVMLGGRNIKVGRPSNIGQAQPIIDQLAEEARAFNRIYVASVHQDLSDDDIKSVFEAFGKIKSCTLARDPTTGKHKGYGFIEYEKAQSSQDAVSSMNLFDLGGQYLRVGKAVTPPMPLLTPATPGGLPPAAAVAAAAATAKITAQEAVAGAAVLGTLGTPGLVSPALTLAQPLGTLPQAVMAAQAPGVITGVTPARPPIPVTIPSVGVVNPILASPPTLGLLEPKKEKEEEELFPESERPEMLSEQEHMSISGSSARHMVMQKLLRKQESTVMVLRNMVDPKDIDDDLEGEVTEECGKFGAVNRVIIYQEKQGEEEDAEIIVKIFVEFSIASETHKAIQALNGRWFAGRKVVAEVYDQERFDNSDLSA

The chains are these.
B1: SRp40 (protein, UniProt Q13243 1-272)
chain: MSGCRVFIGRLNPAAREKDVERFFKGYGRIRDIDLKRGFGFVEFEDPRDADDAVYELDGKELCSERVTIEHARARSRGGRGRGRYSDRFSSRRPRNDRRNAPPVRTENRLIVENLSSRVSWQDLKDFMRQAGEVTFADAHRPKLNEGVVEFASYGDLKNAIEKLSGKEINGRKIKLIEGSKRHSRSRSRSRSRTRSSSRSRSRSRSRSRKSYSRSRSRSRSRSRSKSRSVSRSPVPEKSQKRGSSSRSKSPASVDRQRSRSRSRSRSVDSGN
B2: SC35 (protein, UniProt Q01130 1-221)
chain: MSYGRPPPDVEGMTSLKVDNLTYRTSPDTLRRVFEKYGRVGDVYIPRDRYTKESRGFAFVRFHDKRDAEDAMDAMDGAVLDGRELRVQMARYGRPPDSHHSRRGPPPRRYGGGGYGRRSRSPRRRRRSRSRSRSRSRSRSRSRYSRSKSRSRTRSRSRSTSKSRSARRSKSKSSSVSRSRSRSRSRSRSRSPPPVSKRESKSRSRSKSPPKSPEEEGAVSS
B3: SRp55 (protein, UniProt Q13247 1-344)
chain: MPRVYIGRLSYNVREKDIQRFFSGYGRLLEVDLKNGYGFVEFEDSRDADDAVYELNGKELCGERVIVEHARGPRRDRDGYSYGSRSGGGGYSSRRTSGRDKYGPPVRTEYRLIVENLSSRCSWQDLKDFMRQAGEVTYADAHKERTNEGVIEFRSYSDMKRALDKLDGTEINGRNIRLIEDKPRTSHRRSYSGSRSRSRSRRRSRSRSRRSSRSRSRSISKSRSRSRSRSKGRSRSRSKGRKSRSKSKSKPKSDRGSHSHSRSRSKDEYEKSRSRSRSRSPKENGKGDIKSKSRSRSQSRSNSPLPVPPSKARSVSPPPKRATSRSRSRSRSKSRSRSRSSSRD
B4: RNPS1 (protein, UniProt Q15287 1-305)
chain: MDLSGVKKKSLLGVKENNKKSSTRAPSPTKRKDRSDEKSKDRSKDKGATKESSEKDRGRDKTRKRRSASSGSSSTRSRSSSTSSSGSSTSTGSSSGSSSSSASSRSGSSSTSRSSSSSSSSGSPSPSRRRHDNRRRSRSKSKPPKRDEKERKRRSPSPKPTKVHIGRLTRNVTKDHIMEIFSTYGKIKMIDMPVERMHPHLSKGYAYVEFENPDEAEKALKHMDGGQIDGQEITATAVLAPWPRPPPRRFSPPRRMLPPPPMWRRSPPRMRRRSRSPRRRSPVRRRSRSPGRRRHRSRSSSNSSR
B5: LUC7L2 (protein, UniProt Q9Y383 1-392)
chain: MSAQAQMRAMLDQLMGTSRDGDTTRQRIKFSDDRVCKSHLLNCCPHDVLSGTRMDLGECLKVHDLALRADYEIASKEQDFFFELDAMDHLQSFIADCDRRTEVAKKRLAETQEEISAEVAAKAERVHELNEEIGKLLAKVEQLGAEGNVEESQKVMDEVEKARAKKREAEEVYRNSMPASSFQQQKLRVCEVCSAYLGLHDNDRRLADHFGGKLHLGFIEIREKLEELKRVVAEKQEKRNQERLKRREEREREEREKLRRSRSHSKNPKRSRSREHRRHRSRSMSRERKRRTRSKSREKRHRHRSRSSSRSRSRSHQRSRHSSRDRSRERSKRRSSKERFRDQDLASCDRDRSSRDRSPRDRDRKDKKRSYESANGRSEDRRSSEEREAGEI
B6: CROP(LUC7a) (protein, UniProt O95232 1-432)
chain: MISAAQLLDELMGRDRNLAPDEKRSNVRWDHESVCKYYLCGFCPAELFTNTRSDLGPCEKIHDENLRKQYEKSSRFMKVGYERDFLRYLQSLLAEVERRIRRGHARLALSQNQQSSGAAGPTGKNEEKIQVLTDKIDVLLQQIEELGSEGKVEEAQGMMKLVEQLKEERELLRSTTSTIESFAAQEKQMEVCEVCGAFLIVGDAQSRVDDHLMGKQHMGYAKIKATVEELKEKLRKRTEEPDRDERLKKEKQEREEREKEREREREERERKRRREEEEREKERARDRERRKRSRSRSRHSSRTSDRRCSRSRDHKRSRSRERRRSRSRDRRRSRSHDRSERKHRSRSRDRRRSKSRDRKSYKHRSKSRDREQDRKSKEKEKRGSDDKKSSVKSGSREKQSEDTNTESKESDTKNEVNGTSEDIKSEGDTQSN
B7: TRA-2 alpha (protein, UniProt Q13595 1-282)
chain: MSDVEENNFEGRESRSQSKSPTGTPARVKSESRSGSRSPSRVSKHSESHSRSRSKSRSRSRRHSHRRYTRSRSHSHSHRRRSRSRSYTPEYRRRRSRSHSPMSNRRRHTGSRANPDPNTCLGVFGLSLYTTERDLREVFSRYGPLSGVNVVYDQRTGRSRGFAFVYFERIDDSKEAMERANGMELDGRRIRVDYSITKRAHTPTPGIYMGRPTHSGGGGGGGGGGGGGGGGRRRDSYYDRGYDRGYDRYEDYDYRYRRRSPSPYYSRYRSRSRSRSYSPRRY
B8: 9G8 (protein, UniProt Q16629 1-238)
chain: MSRYGRYGGETKVYVGNLGTGAGKGELERAFSYYGPLRTVWIARNPPGFAFVEFEDPRDAEDAVRGLDGKVICGSRVRVELSTGMPRRSRFDRPPARRPFDPNDRCYECGEKGHYAYDCHRYSRRRRSRSRSRSHSRSRGRRYSRSRSRSRGRRSRSASPRRSRSISLRRSRSASLRRSRSGSIKGSRYFQSPSRSRSRSRSISRPRSSRSKSRSPSPKRSRSPSGSPRRSASPERMD
B9: DDx46/prp5 (protein, UniProt Q7L014 1-1031)
chain: MGRESRHYRKRSASRGRSGSRSRSRSPSDKRSKRGDDRRSRSRDRDRRRERSRSRDKRRSRSRDRKRLRRSRSRERDRSRERRRSRSRDRRRSRSRSRGRRSRSSSPGNKSKKTENRSRSKEKTDGGESSKEKKKDKDDKEDEKEKDAGNFDQNKLEEEMRKRKERVEKWREEQRKKAMENIGELKKEIEEMKQGKKWSLEDDDDDEDDPAEAEKEGNEMEGEELDPLDAYMEEVKEEVKKFNMRSVKGGGGNEKKSGPTVTKVVTVVTTKKAVVDSDKKKGELMENDQDAMEYSSEEEEVDLQTALTGYQTKQRKLLEPVDHGKIEYEPFRKNFYVEVPELAKMSQEEVNVFRLEMEGITVKGKGCPKPIKSWVQCGISMKILNSLKKHGYEKPTPIQTQAIPAIMSGRDLIGIAKTGSGKTIAFLLPMFRHIMDQRSLEEGEGPIAVIMTPTRELALQITKECKKFSKTLGLRVVCVYGGTGISEQIAELKRGAEIIVCTPGRMIDMLAANSGRVTNLRRVTYVVLDEADRMFDMGFEPQVMRIVDNVRPDRQTVMFSATFPRAMEALARRILSKPIEVQVGGRSVVCSDVEQQVIVIEEEKKFLKLLELLGHYQESGSVIIFVDKQEHADGLLKDLMRASYPCMSLHGGIDQYDRDSIINDFKNGTCKLLVATSVAARGLDVKHLILVVNYSCPNHYEDYVHRAGRTGRAGNKGYAYTFITEDQARYAGDIIKALELSGTAVPPDLEKLWSDFKDQQKAEGKIIKKSSGFSGKGFKFDETEQALANERKKLQKAALGLQDSDDEDAAVDIDEQIESMFNSKKRVKDMAAPGTSSVPAPTAGNAEKLEIAKRLALRINAQKNLGIESQDVMQQATNAILRGGTILAPTVSAKTIAEQLAEKINAKLNYVPLEKQEEERQDGGQNESFKRYEEELEINDFPQTARWKVTSKEALQRISEYSEAAITIRGTYFPPGKEPKEGERKIYLAIESANELAVQKAKAEITRLIKEELIRLQNSYQPTNKGRYKVL
B10: NHN1 (protein, UniProt Q86VM9 1-953)
chain: MDVAESPERDPHSPEDEEQPQGLSDDDILRDSGSDQDLDGAGVRASDLEDEESAARGPSQEEEDNHSDEEDRASEPKSQDQDSEVNELSRGPTSSPCEEEGDEGEEDRTSDLRDEASSVTRELDEHELDYDEEVPEEPAPAVQEDEAEKAGAEDDEEKGEGTPREEGKAGVQSVGEKESLEAAKEKKKEDDDGEIDDGEIDDDDLEEGEVKDPSDRKVRPRPTCRFFMKGNCTWGMNCRFIHPGVNDKGNYSLITKADPFPPNGAPPLGPHPLMPANPWGGPVVDEILPPPPPEPPTESAWERGLRHAKEVLKKATIRKEQEPDFEEKRFTVTIGEDEREFDKENEVFRDWNSRIPRDVRDTVLEPYADPYYDYEIERFWRGGQYENFRVQYTETEPYHNYRERERERERENRQRERERERERDRERERRQRERERERERERDKERQRRKEEWERERAKRDEKDRQHRDRDREKEREKEKGKPKPRSPQPPSRQAEPPKKEAATTGPQVKRADEWKDPWRRSKSPKKKLGVSVSPSRARRRRKTSASSASASNSSRSSSRSSSYSGSGSSRSRSRSSSYSSYSSRSSRHSSFSGSRSRSRSFSSSPSPSPTPSPHRPSIRTKGEPAPPPGKAGEKSVKKPAPPPAPPQATKTTAPVPEPTKPGDPREARRKERPARTPPRRRTLSGSGSGSGSSYSGSSSRSRSLSVSSVSSVSSATSSSSSAHSVDSEDMYADLASPVSSASSRSPAPAQTRKEKGKSKKEDGVKEEKRKRDSSTQPPKSAKPPAGGKSSQQPSTPQQAPPGQPQQGTFVAHKEIKLTLLNKAADKGSRKRYEPSDKDRQSPPPAKRPNTSPDRGSRDRKSGGRLGSPKPERQRGQNSKAPAAPADRKRQLSPQSKSSSKVTSVPGKASDPGAASTKSGKASTLSRREELLKQLKAVEDAIARKRAKIPGKA
B11: TRA2-beta (protein, UniProt P62995 1-288)
chain: MSDSGEQNYGERESRSASRSGSAHGSGKSARHTPARSRSKEDSRRSRSKSRSRSESRSRSRRSSRRHYTRSRSRSRSHRRSRSRSYSRDYRRRHSHSHSPMSTRRRHVGNRANPDPNCCLGVFGLSLYTTERDLREVFSKYGPIADVSIVYDQQSRRSRGFAFVYFENVDDAKEAKERANGMELDGRRIRVDFSITKRPHTPTPGIYMGRPTYGSSRRRDYYDRGYDRGYDDRDYYSRSYRGGGGGGGGWRAAQDRDQIYRRRSPSPYYSRGGYRSRSRSRSYSPRRY
B12: SRrp86 (protein, UniProt Q8WXA9 1-508)
chain: MTSLMPGAGLLPIPTPNPLTTLGVSLSSLGAIPAAALDPNIATLGEIPQPPLMGNVDPSKIDEIRRTVYVGNLNSQTTTADQLLEFFKQVGEVKFVRMAGDETQPTRFAFVEFADQNSVPRALAFNGVMFGDRPLKINHSNNAIVKPPEMTPQAAAKELEEVMKRVREAQSFISAAIEPESGKSNERKGGRSRSHTRSKSRSSSKSHSRRKRSQSKHRSRSHNRSRSRQKDRRRSKSPHKKRSKSRERRKSRSRSHSRDKRKDTREKIKEKERVKEKDREKEREREKEREKEKERGKNKDRDKEREKDREKDKEKDREREREKEHEKDRDKEKEKEQDKEKEREKDRSKEIDEKRKKDKKSRTPPRSYNASRRSRSSSRERRRRRSRSSSRSPRTSKTIKRKSSRSPSPRSRNKKDKKREKERDHISERRERERSTSMRKSSNDRDGKEKLEKNSTSLKEKEHNKEPDSSVSKEVDDKDAPRTEENKIQHNGNCQLNEENLSTKTEAV

Results are given in words; binding and its absence hold for the method and conditions named. Binding seen in cells or lysates may run through a third protein. A yes stands for co-enrichment or nearness to the bait. Other partners may have been found. Tags and fused reporters may be left off the sequences shown.

In the assay the target is FLAG-V5-tagged PUF60 (PUF60L) (human) (UniProt Q9UHX1). The experiment in a line: affinity purification with mass spectrometry; F-V5-PUF60L precipitated from HeLa S3 nuclear extract on ANTI-FLAG M2 Affinity Gel, 1 h at 4°C, IP buffer (20 mM Hepes pH 8, 150 mM KCl, 1.5 mM MgCl2); washes with 250 mM KCl, 0.05% Triton X-100, one with 200 ng/ml RNase A; digested on the beads, or eluted with FLAG peptide and gel bands excised; only proteins found in both experiments and absent from control HeLa extract are listed.
For B1, the binding result is listed as “binds”.
As for B2, the entry is “binds”; as for B3, “binds”.
In the case of B4 it was “binds”.
In the case of B5 it was “binds”; in that of B6, “binds”; in that of B7, “binds”.
Turning to B8, the binding result is recorded as “binds”.
As for B9, the entry is “binds”; as for B10, “binds”; as for B11, “binds”.
As for B12, the entry is “binds”.
